Measured values: publication PMC4868535, “A G-protein activation cascade from Arl13B to Arl3 and implications for ciliary targeting of lipidated proteins” (eLife, 2015)

Legend:
[1] = molecular target: GST-CrArl3 (Chlamydomonas reinhardtii); test: condition: only CrArl13B loaded with GDP (1 mg/ml, ~37 µM); pull-down; 50 µg GST-CrArl3 on 50 µl glutathione agarose; 1 mg/ml (~37 µM) CrArl13B 18-278 loaded with GDP, 30 min, buffer M; SDS-PAGE; both purified
[2] = molecular target: CrArl3 (Chlamydomonas reinhardtii); test: crystal structure; CrArl13B·GppNHp and CrArl3·GDP mixed 1.2:1 with alkaline phosphatase; sitting drop, 0.1M Tris pH 8.5, 25% PEG 6000; GppNHp in both active sites; both purified
[3] = molecular target: GST-CrArl3 (Chlamydomonas reinhardtii); test: pull-down; 50 µg GST-CrArl3 (loaded with GDP or GppNHp) on 50 µl glutathione agarose; 1 mg/ml (~37 µM) CrArl13B 18-278 loaded with GppNHp, 30 min, buffer M (25 mM Tris pH 7.5, 100 mM NaCl, 5 mM MgCl2, 3 mM β-mercaptoethanol, 1% glycerole); SDS-PAGE; both purified

B1: CrArl13B^18-–278 (domain or fragment, UniProt A8INQ0 18-278)
chain: RKITIALLGLDNAGKTTLLNSIQGEVDRDTTPTFGFNSTTLNEGKYKIEVFDLGGGKNIRGVWKKYLAEVHAIVYVVDAADPGRFEESKMTMAEVLENQFMRDKPICIFANKQDLPTAAPAAEVVKGLGLATCRNSHNVFPCTAKMPAGQDVDHRLRDGLKWLVGTVDREFGRLDPRVQTEAEEVRQEEARKKKEREERLRKQREERLRQQKEEEERAREVEKENELHDGKAPSLLAAGGGVVGAAAAGVNGVMVDEQQEL
- binding [1]: no binding
- binding [2]: binds
- binding [3]: binds weakly

These are yes or no findings as the source states them, for the method shown. For part of these data: A result given as binding can be weak or reduced; the word gives no strength.
